# Data as given in patent EP0788796A1, “URICOSURIC AGENT” (priority 1995, dated 1997).
# Assay: Uric acid excreting and diuretic actions in rats
# Format: in vivo, Wistar rats
# Protocol: Three female Wistar rats (4-week old) in each group were administered orally with 300 or 1000 mg/kg of a test compound in a volume of 10 ml/kg as suspended in an aqueous solution of 0.5% carboxymethylcellulose sodium or 5% gum arabic; immediately thereafter, the animals were loaded orally with 25 ml/kg of physiological saline and the urine was collected up to 5 h after the administration of the test compound. The collected urine was immediately measured quantitatively and the urinary concentration of uric acid was measured by a urikase method in accordance with the procedure of Kabasakalian et al. [Kabasakalian, P. et al.: Clin Chem., 19, 522-524 (1973)] and the urinary excretion of uric acid was calculated. As control drugs, probenecid (300 or 1000 mg/kg) and furosemide (30 mg/kg) were used. Data on the individual groups are shown in Table 1 in relative values, with 100 being assigned to each of the volume of urine and the urinary excretion of uric acid in a control group which was administered with an aqueous solution of 0.5% carboxymethylcellulose sodium or 5% gum arabic in place of the solution of a test compound.
smiles,measurement,setting,value
"NS(=O)(=O)c1cc(C(=O)O)c(NCc2ccco2)cc1Cl [Furosemide, furosemide, reference compound]",response vs control in vivo at 30 mg/kg,"Rattus norvegicus, 30 mg/kg oral, female Wistar rats, urine collected up to 5 h, relative value with control = 100, read-out: Urinary excretion of uric acid (%)",106%
same,urinary excretion of uric acid,"result in words, summary of Table 1",no increase was observed in the uric acid excretion
